This is an account of results in the supplement of paper PMC5770031.

This is one part of the list. Single values are uncertain here, since repeats match poorly.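 ATM8/balancer (normal ATM) heterozygous flies were crossed on treated food; parents laid eggs 5–6 days, offspring developed ~12 days, so parents and larvae ingested compound. Readout: fraction of emerged adults homozygous for ATM8 versus 2% DMSO controls. Compounds were neutral at 10–20% homozygotes, harmful below 10%, helpful above 20%.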

This experiment relates to Drosophila melanogaster ATM8 (temperature-sensitive ATM allele). The experiment can be described thus: fraction of eclosed F1 progeny that are homozygous ATM8 (rescue of developmental lethality); higher = more rescue of ATM8 developmental lethality; extreme values may be limits of the assay. To be noted: compound concentration applied to food 0.2 mM; 21 °C.
For `NCC(O)c1ccc(O)cc1` (stereo not given), the “fraction of eclosed F1 progeny that are homozygous ATM8” value (shortened to “fraction”) was found to be 0.236.

In the case of `CC(=O)Nc1ccc(S(=O)(=O)c2ccc(NC(C)=O)cc2)cc1`, the “fraction” value stood at 0.232.

In the case of `O=C(O)c1ccccc1Nc1cccc(C(F)(F)F)c1`, the “fraction” value stood at 0.

In the case of `OCCc1ccccc1`, the “fraction” value came out at 0.176.

For `Clc1ccc(C(c2ccccc2Cl)C(Cl)Cl)cc1` (stereo not given), the “fraction” value is 0.139.

As for `O=C1O[C@H]([C@@H](O)CO)C(O)=C1O`, the “fraction” value is 0.24.

With `O=[N+]([O-])c1ccc(O)c2ncccc12`, the “fraction” value was determined as 0.109.

For the compound `NNC(=O)c1ccncc1.Nc1ccc(C(=O)O)c(O)c1`, the “fraction” value was found to be 0.0588.

`CC(O)(CC(=O)O)CC(=O)O`: the “fraction” value was 0.26.

Regarding `CCCc1nn(C)c2c(=O)[nH]c(-c3cc(S(=O)(=O)N4CCN(C)CC4)ccc3OCC)nc12`, the “fraction” value was 0.

`C[C@@H]1CN(c2c(F)c(F)c3c(=O)c(C(=O)O)cn(C4CC4)c3c2F)C[C@H](C)N1`: the “fraction” value was 0.259.

With `CCCCS(=N)(=O)CCC(N)C(=O)O` (stereo not given), the “fraction” value was 0.211.

For the compound `CCOC(=O)CC(=O)N1CCSC1COc1ccccc1OC` (stereo not given), the “fraction” value was found to be 0.121.

For the compound `CC(=O)Oc1ccc(C(c2ccc(OC(C)=O)cc2)c2ccccn2)cc1`, the “fraction” value was 0.174.

For `CCc1nn(CCCN2CCN(c3cccc(Cl)c3)CC2)c(=O)n1CCOc1ccccc1`, the “fraction” value was 0.121.

For the compound `Cc1ccc(/N=C/N(C)/C=N/c2ccc(C)cc2C)c(C)c1`, the “fraction” value was 0.18.

With `O=c1c2ccccc2[se]n1-c1ccccc1`, the “fraction” value came to 0.105.

With `O=S(=O)(c1cccc2cnccc12)N1CCCNCC1`, the “fraction” value came to 0.05.

Consider `c1ccc2c(c1)Nc1ccccc1S2`, for which the “fraction” value came out at 0.103.

For `CCCNC(C)(C)COC(=O)c1ccccc1`, the “fraction” value was 0.0864.

In the case of `C[C@]12CC[C@H]3[C@@H](CCC4=CC(=O)CC[C@@]43C)[C@@H]1CC[C@@H]2O`, the “fraction” value worked out at 0.111.

With `C=C[C@@]1(C)CC(=O)[C@@]2(O)[C@](C)(O1)[C@@H](O)[C@@H](O)C1C(C)(C)CC[C@H](O)[C@@]12C` (stereo not given in full), the “fraction” value was 0.3.

As to `NC1CCN(c2c(F)cc3c(=O)c(C(=O)O)cn(C4CC4)c3c2Cl)C1` (stereo not given), the “fraction” value was found to be 0.0625.

Regarding `CC(=O)Nc1ccc(OC(C)=O)cc1`, the “fraction” value was 0.128.

As to `NC[C@@H]1O[C@H](O[C@H]2[C@@H](O)[C@H](O[C@@H]3[C@@H](O)[C@H](N)C[C@H](N)[C@H]3O[C@H]3O[C@H](CN)[C@@H](O)[C@H](O)[C@H]3N)O[C@@H]2CO)[C@H](N)[C@@H](O)[C@@H]1O`, the “fraction” value is 0.18.

As to `CCC1(C)CC(=O)NC1=O` (stereo not given), the “fraction” value was determined as 0.326.

In the case of `NC(Cc1ccc(Cl)cc1)C(=O)O` (racemic), the “fraction” value came out at 0.128.

In the case of `CC(NCCc1ccc(O)cc1)C(O)c1ccc(O)cc1` (stereo not given), the “fraction” value is 0.0857.

With `C[C@]12CCC(=O)C[C@@H]1CC[C@@H]1[C@@H]2CC[C@]2(C)C(=O)CC[C@@H]12` [5alpha-ANDROSTAN-3,17-DIONE], the “fraction” value was 0.125.

For the compound `O=C(NC(Cc1cc(=O)[nH]c2ccccc12)C(=O)O)c1ccc(Cl)cc1` (stereo not given), the “fraction” value was 0.222.
